Assay results reported in US20150037340A1 (PEIRRE FABRE MEDICAMENT, published 2015).
Results are given in words; binding and its absence hold for the method and conditions named. Some entries that bind do so weakly or less than the wild type.

By UniProt entry, the sequences of proteins in these tests, tags left out. Where a name states a change or a piece, a line headed by the entry shows the natural chain unless it says otherwise.
UniProt P30530: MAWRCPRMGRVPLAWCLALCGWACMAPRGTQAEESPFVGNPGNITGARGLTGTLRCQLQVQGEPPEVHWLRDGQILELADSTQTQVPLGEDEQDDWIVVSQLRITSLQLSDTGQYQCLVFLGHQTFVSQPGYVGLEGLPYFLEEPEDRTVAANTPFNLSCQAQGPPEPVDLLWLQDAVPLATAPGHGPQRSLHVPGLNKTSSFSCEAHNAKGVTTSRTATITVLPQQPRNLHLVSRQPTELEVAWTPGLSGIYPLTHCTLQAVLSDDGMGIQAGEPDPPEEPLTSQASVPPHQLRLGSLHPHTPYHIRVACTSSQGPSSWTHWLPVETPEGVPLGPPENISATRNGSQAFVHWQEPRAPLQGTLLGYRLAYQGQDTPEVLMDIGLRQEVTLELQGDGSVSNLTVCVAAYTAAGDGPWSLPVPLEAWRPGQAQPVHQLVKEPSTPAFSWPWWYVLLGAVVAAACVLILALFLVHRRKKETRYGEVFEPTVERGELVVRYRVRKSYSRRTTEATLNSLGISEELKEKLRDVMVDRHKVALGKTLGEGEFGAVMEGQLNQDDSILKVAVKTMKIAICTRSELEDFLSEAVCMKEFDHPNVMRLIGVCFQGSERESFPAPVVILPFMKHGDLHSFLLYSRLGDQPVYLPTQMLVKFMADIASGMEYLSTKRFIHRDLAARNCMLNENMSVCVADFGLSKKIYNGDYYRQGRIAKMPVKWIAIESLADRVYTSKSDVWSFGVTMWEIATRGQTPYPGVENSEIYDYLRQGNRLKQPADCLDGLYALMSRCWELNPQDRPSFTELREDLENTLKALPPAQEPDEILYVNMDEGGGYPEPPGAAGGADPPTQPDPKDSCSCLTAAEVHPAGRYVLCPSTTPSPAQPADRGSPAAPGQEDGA

How the values were obtained:
[1] = target: recombinant human Axl-Fc (R and D Systems, cat No 154-AL / 154AL/CF) (human) (UniProt P30530); assay: ELISA on coated rhAxl-Fc
[2] = target: recombinant human Axl-Fc (R and D Systems, cat No 154-AL / 154AL/CF) (human) (UniProt P30530); assay: competition ELISA: rhAxl-Fc pre-incubated with the antibody, loaded on coated rhGas6 (blocked ligand), bound rhAxl-Fc detected with anti-human IgG-HRP
[3] = target: recombinant human Axl-Fc (R and D Systems, cat No 154-AL / 154AL/CF) (human) (UniProt P30530); assay: sandwich ELISA: coated antibody, rhAxl-Fc range, biotinylated anti-Axl detection
[4] = target: recombinant human Axl-Fc (R and D Systems, cat No 154-AL / 154AL/CF) (human) (UniProt P30530); assay: ELISA on coated rhAxl-Fc, detection with goat anti-mouse IgG-HRP
[5] = target: recombinant human Axl-Fc (R and D Systems, cat No 154-AL / 154AL/CF) (human) (UniProt P30530); assay: sandwich ELISA: plate coated with the antibody, rhAxl-Fc titrated (the axis on the sheet reads 'Ab concentration'), detection with a biotinylated anti-Axl antibody and avidin-HRP

Measured: binding

B1: 1613F12 antibody (murine form) (antibody, V domains shown)
VH: EVHLQQSGAELVKPGASVKLSCTASGFNIRDTYIHWVKQRPEQGLEWIGRLDPANGHTKYGPNFQGRATMTSDTSSNTAYLQLSSLTSEDTAVYYCARGAYYYGSSGLFYFDYWGQGTTLSVSS
VL: DVQITQSPSYLATSPGETITINCRASKSISKYLAWYQEKPGKTNKLLIYSGSTLQSGVPSRFSGSGSGTDFTLTISSLEPEDFAMYFCQQHHEYPLTFGAGTELELK
notes: Whole murine monoclonal antibody purified from a hybridoma; a murine IgG1 (9G4) serves as its isotype control; also called m1613F12; monoclonal antibody 1613F12 derived from the hybridoma I-4505
binds: all assays above
